# Results from patent US8895033B2, “Sustained release formulations using non-aqueous carriers” (Amylin Pharmaceuticals, LLC, priority 2008, dated 2014).
# At least one structure is not confirmed: it was looked up by name or label, or the drawing left a doubt.
# Assay: Fraction of drug in microparticles and in MCT oil carrier after storage
# Format: physicochemical
# Conditions: PLGA copolymer
# From the text: Mixtures ranged from 2% to 10% w/w of the active pharmaceutical ingredient. The mixed powder was transferred to an extruder where the temperature was adjusted according to the chosen polymer. Some polymers needed higher temperatures to produce a melt with good flow properties. The extruder contained twin screws that moved clockwise to produce efficient mixing. The material was extruded through a 1.5 mm orifice, collected, cooled at room temperature, and cut into short strands about 1-2 inches long. These strands were then fed into a 12-tooth rotor mill, followed by a sieving step to produce microparticles of about 20 to 100 microns. The microparticles were collected and stored at 5° C. until further use.
# Experimental samples were prepared by dispersing about 50 mg of the microparticles into 0.75 mL of a MCT oil carrier. The samples were stored at 5° C. and 25° C. for two days, two weeks, or one month, at which times representative samples were tested. The fraction of drug that remained in the microparticles and the fraction of drug that partitioned into the MCT oil carrier were determined. Briefly, the samples were centrifuged to separate the microparticles from the MCT oil carrier. Each portion was treated independently to determine the amount of drug it contained. Results are reported on the basis of the percent residing in each independent portion.
structure (smiles),measurement,setting,value
CN(C)c1ccc(O)c2c1C[C@H]1C[C@H]3[C@H](N(C)C)C(O)=C(C(N)=O)C(=O)[C@@]3(O)C(O)=C1C2=O [minocycline],percent of drug in MCT Carrier,1 Month Storage at 5° C.,0.1%
same,percent of drug in Microparticles,1 Month Storage at 5° C.,99.9%
same,percent of drug in MCT Carrier,1 Month Storage at 25° C.,0.4%
same,percent of drug in Microparticles,1 Month Storage at 25° C.,99.6%
same,percent of drug in MCT Carrier,2 Days Storage at 5° C.,0.9%
same,percent of drug in Microparticles,2 Days Storage at 5° C.,99.1%
same,percent of drug in MCT Carrier,2 Days Storage at 25° C.,0.6%
same,percent of drug in Microparticles,2 Days Storage at 25° C.,99.4%
